Data on one sequence can be found in PMC6728143.

Protein sequences, listed by entry. Tags and fused reporters are not part of them. Lines headed by an entry give the natural chain unless they say otherwise; changes in a name come on top.
UniProt P19338, whole entry: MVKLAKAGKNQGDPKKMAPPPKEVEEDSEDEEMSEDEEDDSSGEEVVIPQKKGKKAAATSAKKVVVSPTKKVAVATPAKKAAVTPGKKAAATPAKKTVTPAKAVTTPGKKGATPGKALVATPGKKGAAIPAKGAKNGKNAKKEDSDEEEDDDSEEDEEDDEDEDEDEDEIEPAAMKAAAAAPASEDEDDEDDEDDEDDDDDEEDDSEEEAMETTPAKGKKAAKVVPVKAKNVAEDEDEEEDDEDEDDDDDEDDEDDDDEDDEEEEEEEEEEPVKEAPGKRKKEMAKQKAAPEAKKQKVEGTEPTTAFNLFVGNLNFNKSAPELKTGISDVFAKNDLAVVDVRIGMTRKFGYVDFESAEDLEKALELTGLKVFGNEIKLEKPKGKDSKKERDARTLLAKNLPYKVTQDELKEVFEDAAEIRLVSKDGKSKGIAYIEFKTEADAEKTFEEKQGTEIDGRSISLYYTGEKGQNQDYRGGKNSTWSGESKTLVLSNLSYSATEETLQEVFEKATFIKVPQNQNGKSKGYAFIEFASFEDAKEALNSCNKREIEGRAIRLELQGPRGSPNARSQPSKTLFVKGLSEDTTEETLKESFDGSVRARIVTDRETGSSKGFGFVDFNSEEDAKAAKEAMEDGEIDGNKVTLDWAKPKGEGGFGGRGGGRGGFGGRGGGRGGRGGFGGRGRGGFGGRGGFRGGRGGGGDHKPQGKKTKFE
UniProt Q9UKV8, whole entry: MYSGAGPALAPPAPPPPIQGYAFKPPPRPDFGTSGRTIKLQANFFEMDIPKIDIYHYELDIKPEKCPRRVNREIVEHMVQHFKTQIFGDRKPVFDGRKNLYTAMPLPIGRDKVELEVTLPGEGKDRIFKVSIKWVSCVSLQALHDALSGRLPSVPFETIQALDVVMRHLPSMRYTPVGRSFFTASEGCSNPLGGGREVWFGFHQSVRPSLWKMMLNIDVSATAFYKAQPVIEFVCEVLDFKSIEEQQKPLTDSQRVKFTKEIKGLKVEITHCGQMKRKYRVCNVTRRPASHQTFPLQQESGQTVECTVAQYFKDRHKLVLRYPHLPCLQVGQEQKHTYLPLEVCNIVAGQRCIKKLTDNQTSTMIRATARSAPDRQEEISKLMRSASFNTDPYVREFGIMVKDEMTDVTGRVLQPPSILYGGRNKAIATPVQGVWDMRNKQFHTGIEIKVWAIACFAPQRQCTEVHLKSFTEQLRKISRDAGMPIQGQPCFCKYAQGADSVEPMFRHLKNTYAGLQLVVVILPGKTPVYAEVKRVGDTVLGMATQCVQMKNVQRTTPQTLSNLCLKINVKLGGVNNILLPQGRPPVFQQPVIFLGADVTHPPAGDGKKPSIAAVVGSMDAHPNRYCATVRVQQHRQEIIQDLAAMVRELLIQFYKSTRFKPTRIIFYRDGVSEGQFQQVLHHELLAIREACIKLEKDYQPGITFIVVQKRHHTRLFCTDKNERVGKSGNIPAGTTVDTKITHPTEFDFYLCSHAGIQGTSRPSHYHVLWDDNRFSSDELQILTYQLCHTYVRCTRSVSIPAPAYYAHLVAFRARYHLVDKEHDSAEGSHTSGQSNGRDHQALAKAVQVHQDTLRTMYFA
UniProt P06748, whole entry: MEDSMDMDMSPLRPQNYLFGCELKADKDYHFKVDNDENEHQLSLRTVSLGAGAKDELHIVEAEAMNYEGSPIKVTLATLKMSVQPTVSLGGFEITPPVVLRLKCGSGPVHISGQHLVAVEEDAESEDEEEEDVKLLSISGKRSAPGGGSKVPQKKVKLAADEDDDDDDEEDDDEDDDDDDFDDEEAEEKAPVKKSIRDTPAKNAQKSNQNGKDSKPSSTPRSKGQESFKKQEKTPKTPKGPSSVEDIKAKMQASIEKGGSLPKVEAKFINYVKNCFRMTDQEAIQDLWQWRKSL
UniProt P05455: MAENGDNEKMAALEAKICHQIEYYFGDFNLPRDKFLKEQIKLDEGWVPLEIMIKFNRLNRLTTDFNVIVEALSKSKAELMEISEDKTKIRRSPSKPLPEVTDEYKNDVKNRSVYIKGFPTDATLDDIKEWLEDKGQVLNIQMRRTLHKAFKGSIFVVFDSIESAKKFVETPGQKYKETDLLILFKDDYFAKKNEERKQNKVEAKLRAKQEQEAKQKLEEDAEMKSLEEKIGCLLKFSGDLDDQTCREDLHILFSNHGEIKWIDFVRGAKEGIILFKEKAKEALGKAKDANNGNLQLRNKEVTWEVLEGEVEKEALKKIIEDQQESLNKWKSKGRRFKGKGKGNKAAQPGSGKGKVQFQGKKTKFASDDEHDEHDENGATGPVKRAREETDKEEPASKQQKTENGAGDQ

Common to all, as to test: streptavidin pull-down, mass spectrometry
Data set [1] addresses nucleolin (Homo sapiens (MDA-MB-231)) (UniProt P19338). As to conditions: in vitro packaging reaction with membranes, cytosol, ATP, may be indirect; protein in an extract; label: 3' biotin.
Data set [2] has as its target Ago2 (Homo sapiens (MDA-MB-231)) (UniProt Q9UKV8). As to conditions: not detected, protein absent from buoyant vesicles; protein in an extract; label: 3' biotin.
In data set [3] the target is T1, SYNCRIP (Homo sapiens (MDA-MB-231)) (UniProt O60506).
T1 sequence (looked up, limits assumed): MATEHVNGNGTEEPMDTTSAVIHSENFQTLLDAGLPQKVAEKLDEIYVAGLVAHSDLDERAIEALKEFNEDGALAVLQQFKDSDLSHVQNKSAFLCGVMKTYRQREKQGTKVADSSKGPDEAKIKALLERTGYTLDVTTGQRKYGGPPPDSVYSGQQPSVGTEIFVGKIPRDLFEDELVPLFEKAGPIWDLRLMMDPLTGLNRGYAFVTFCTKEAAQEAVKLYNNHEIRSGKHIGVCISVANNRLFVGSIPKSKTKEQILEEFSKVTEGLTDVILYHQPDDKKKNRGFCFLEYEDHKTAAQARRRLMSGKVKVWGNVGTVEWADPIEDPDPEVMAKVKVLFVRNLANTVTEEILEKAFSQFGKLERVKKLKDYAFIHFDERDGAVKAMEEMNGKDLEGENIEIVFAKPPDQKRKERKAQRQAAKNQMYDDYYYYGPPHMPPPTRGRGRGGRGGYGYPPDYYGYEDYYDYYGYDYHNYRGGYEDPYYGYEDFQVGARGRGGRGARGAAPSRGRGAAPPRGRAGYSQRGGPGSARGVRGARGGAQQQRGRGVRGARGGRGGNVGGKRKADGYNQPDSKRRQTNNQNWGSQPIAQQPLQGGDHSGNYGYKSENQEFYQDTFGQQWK
As to conditions: not detected, presence in input not shown; protein in an extract; label: 3' biotin.

In data set [4] the target is nucleophosmin (Homo sapiens (MDA-MB-231)) (UniProt P06748). Particulars: in vitro packaging reaction with membranes, cytosol, ATP, may be indirect; protein in an extract; label: 3' biotin.
Data set [5] has as its target Lupus La protein (La), endogenous (Homo sapiens (MDA-MB-231)) (UniProt P05455). Particulars: in vitro packaging reaction with membranes, cytosol, ATP; protein in an extract; label: 3' biotin.

Construct, isoform or probe ends are uncertain for at least one entry. Where cells or extracts were used, other partners may take part. For some assays here: A negative result means that nothing was seen under these conditions. For some assays here: Protein sequences can lack the tags named with them.

Regarding “UGGAGUGUGACAAUGGUGUUUG [3'-biotinylated miR-122]”, the binding result in data set [1] is given as “binds”; in data set [2], “no binding”; in data set [3], “no binding”; in data set [4] it was “binds”; in data set [5] it was “binds”.
